These are yes or no findings as the source states them, for the method shown. Binding seen in cells or lysates may run through a third protein. Some results given as binding are weak or reduced against the parent protein; the word gives no strength. Sequences can lack the tags named with a protein.
Molecular target: Rpb3, a subunit of RNA Pol II (S. cerevisiae (endogenous in yeast cells)) (UniProt P16370)
Assay: co-IP; 1.5 mg whole cell extract with anti-Rpb3 antibody (BioLegend) and protein G sepharose, 4 °C, 4 h; 50 mM Tris-HCl pH 7.5, 0.1% NP-40, 150 mM NaCl; precipitates immunoblotted for the tagged proteins and Rpb3

By UniProt entry, the sequences of proteins in these tests, tags left out.
UniProt P16370: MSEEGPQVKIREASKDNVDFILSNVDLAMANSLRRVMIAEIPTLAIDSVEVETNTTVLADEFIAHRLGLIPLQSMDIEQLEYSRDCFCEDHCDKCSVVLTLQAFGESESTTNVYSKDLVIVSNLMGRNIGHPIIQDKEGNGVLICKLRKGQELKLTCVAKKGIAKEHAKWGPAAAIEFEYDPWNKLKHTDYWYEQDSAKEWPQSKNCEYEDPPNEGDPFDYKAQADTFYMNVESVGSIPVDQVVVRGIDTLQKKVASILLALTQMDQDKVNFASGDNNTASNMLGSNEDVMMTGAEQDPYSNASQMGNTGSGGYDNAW

- binding: binds
B1: Hda1 (TAP-tagged) (protein, UniProt P53973 1-706)
chain: MDSVMVKKEVLENPDHDLKRKLEENKEEENSLSTTSKSKRQVIVPVCMPKIHYSPLKTGLCYDVRMRYHAKIFTSYFEYIDPHPEDPRRIYRIYKILAENGLINDPTLSGVDDLGDLMLKIPVRAATSEEILEVHTKEHLEFIESTEKMSREELLKETEKGDSVYFNNDSYASARLPCGGAIEACKAVVEGRVKNSLAVVRPPGHHAEPQAAGGFCLFSNVAVAAKNILKNYPESVRRIMILDWDIHHGNGTQKSFYQDDQVLYVSLHRFEMGKYYPGTIQGQYDQTGEGKGEGFNCNITWPVGGVGDAEYMWAFEQVVMPMGREFKPDLVIISSGFDAADGDTIGQCHVTPSCYGHMTHMLKSLARGNLCVVLEGGYNLDAIARSALSVAKVLIGEPPDELPDPLSDPKPEVIEMIDKVIRLQSKYWNCFRRRHANSGCNFNEPINDSIISKNFPLQKAIRQQQQHYLSDEFNFVTLPLVSMDLPDNTVLCTPNISESNTIIIVVHDTSDIWAKRNVISGTIDLSSSVIIDNSLDFIKWGLDRKYGIIDVNIPLTLFEPDNYSGMITSQEVLIYLWDNYIKYFPSVAKIAFIGIGDSYSGIVHLLGHRDTRAVTKTVINFLGDKQLKPLVPLVDETLSEWYFKNSLIFSNNSHQCWKENESRKPRKKFGRVLRCDTDGLNNIIEERFEEATDFILDSFEEWSDEE

From paper PMC6753149
